Reference: the supplement of paper PMC10849652
The list shows a part of the results.

By UniProt entry, the sequences of proteins in these tests, tags left out. Where a name states a change or a piece, a line headed by the entry shows the natural chain unless it says otherwise.
UniProt O95628: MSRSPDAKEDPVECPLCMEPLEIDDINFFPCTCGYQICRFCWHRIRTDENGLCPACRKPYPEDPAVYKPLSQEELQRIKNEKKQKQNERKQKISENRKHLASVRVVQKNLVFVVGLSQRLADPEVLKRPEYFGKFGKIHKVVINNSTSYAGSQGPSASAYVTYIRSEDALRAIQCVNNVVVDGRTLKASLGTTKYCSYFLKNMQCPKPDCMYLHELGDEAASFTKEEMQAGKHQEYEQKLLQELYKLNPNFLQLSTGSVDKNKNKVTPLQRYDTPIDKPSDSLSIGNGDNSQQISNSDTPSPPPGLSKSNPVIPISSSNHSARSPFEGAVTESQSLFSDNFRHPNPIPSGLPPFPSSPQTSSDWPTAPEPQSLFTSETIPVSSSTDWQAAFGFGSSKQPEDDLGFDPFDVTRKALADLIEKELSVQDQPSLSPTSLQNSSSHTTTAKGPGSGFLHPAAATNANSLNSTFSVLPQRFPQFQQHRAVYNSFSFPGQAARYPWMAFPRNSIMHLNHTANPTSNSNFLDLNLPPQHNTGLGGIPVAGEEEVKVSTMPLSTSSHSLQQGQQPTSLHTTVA
UniProt Q6PJW8: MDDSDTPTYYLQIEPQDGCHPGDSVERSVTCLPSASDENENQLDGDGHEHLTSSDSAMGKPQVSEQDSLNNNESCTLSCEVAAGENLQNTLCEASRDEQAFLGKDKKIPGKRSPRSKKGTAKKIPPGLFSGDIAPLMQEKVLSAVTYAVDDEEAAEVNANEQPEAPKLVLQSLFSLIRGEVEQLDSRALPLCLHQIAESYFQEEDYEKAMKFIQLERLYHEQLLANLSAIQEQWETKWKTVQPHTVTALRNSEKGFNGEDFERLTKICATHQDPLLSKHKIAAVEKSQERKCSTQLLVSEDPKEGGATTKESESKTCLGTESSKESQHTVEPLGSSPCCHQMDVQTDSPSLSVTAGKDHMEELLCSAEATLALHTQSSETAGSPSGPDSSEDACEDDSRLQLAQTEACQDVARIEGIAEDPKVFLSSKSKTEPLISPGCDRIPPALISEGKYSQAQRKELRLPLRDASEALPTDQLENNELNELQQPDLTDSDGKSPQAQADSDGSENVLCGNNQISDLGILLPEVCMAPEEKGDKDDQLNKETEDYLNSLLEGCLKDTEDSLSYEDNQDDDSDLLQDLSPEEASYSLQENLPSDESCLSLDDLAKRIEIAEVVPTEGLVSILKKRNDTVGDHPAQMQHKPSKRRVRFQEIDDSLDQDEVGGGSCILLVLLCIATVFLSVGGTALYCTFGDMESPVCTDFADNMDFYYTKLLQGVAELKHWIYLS
UniProt Q13057: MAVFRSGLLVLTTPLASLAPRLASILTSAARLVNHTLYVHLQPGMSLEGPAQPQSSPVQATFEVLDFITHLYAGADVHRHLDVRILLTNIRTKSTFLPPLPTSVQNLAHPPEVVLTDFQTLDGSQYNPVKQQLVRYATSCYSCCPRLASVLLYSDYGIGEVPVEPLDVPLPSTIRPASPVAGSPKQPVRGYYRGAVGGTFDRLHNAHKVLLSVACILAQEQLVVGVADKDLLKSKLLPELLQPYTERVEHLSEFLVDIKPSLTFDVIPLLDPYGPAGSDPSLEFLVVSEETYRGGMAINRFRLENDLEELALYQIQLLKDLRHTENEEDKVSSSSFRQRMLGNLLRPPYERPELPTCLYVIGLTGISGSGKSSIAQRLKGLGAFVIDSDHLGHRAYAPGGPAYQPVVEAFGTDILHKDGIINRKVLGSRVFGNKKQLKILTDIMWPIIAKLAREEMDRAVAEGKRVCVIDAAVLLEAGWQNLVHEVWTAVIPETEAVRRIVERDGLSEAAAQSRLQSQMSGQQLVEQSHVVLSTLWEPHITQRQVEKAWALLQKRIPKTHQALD
UniProt Q9H5X1: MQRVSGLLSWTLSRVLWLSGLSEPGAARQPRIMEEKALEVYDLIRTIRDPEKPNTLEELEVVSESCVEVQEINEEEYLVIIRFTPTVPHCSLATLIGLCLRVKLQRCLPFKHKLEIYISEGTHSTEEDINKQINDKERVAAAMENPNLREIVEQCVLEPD
UniProt O75153: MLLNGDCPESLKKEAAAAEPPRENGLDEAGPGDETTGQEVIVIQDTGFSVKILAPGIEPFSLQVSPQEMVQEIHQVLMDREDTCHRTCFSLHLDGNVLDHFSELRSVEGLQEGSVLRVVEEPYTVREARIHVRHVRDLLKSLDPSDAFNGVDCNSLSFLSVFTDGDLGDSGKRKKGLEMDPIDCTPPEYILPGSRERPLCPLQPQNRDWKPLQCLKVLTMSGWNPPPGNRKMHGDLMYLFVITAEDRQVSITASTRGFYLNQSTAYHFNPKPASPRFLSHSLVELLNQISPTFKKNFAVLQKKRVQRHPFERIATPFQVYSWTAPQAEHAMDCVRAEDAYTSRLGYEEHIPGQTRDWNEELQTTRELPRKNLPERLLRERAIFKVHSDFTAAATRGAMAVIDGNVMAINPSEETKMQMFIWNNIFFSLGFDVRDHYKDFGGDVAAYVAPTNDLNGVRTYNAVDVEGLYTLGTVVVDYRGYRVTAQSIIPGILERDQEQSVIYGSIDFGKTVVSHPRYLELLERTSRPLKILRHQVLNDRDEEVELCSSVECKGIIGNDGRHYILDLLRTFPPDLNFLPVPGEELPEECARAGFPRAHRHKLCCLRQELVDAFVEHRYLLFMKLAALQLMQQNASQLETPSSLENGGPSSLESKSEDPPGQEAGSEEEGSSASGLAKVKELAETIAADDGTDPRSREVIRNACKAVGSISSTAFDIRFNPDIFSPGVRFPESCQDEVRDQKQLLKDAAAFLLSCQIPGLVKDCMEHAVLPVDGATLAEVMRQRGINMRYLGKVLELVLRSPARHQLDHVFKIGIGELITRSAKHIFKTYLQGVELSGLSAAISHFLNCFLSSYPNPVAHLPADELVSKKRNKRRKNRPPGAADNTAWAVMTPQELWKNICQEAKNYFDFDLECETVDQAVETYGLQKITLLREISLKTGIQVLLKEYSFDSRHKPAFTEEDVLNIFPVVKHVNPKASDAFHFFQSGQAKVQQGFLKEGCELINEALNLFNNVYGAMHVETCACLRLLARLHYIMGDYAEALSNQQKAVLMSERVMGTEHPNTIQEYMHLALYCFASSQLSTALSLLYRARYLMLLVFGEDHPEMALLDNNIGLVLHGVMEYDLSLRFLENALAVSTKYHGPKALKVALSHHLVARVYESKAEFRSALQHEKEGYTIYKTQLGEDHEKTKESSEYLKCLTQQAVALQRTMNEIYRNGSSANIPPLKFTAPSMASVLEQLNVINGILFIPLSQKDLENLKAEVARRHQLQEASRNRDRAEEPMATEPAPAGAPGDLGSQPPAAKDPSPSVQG
UniProt Q99439: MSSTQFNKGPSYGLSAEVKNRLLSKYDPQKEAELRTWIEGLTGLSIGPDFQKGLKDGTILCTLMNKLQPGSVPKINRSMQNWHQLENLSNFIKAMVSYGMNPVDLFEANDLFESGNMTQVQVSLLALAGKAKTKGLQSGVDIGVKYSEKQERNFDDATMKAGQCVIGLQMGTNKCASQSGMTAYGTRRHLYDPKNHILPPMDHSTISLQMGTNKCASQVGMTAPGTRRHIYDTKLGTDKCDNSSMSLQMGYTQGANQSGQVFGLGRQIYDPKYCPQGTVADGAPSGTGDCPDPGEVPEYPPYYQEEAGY
UniProt O75175, whole entry, looked up: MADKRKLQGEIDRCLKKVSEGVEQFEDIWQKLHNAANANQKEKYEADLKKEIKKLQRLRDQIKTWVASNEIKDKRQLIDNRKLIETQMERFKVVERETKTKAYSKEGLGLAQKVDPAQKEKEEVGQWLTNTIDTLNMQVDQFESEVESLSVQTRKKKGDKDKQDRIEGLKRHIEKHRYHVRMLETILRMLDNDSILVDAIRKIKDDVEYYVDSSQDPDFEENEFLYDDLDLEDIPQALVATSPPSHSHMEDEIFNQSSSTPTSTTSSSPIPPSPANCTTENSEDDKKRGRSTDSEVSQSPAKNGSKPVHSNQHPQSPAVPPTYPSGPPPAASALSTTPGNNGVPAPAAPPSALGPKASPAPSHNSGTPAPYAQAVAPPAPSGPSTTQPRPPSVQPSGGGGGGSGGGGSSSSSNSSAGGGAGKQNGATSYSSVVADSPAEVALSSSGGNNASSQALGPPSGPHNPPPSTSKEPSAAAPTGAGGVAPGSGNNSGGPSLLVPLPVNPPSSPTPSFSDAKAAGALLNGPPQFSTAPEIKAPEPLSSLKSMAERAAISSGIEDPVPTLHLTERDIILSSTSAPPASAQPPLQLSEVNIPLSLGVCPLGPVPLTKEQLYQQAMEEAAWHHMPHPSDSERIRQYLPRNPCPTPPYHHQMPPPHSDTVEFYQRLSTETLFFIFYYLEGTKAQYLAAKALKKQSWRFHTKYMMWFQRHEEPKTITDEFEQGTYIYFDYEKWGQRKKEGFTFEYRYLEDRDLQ
UniProt Q9P2E5: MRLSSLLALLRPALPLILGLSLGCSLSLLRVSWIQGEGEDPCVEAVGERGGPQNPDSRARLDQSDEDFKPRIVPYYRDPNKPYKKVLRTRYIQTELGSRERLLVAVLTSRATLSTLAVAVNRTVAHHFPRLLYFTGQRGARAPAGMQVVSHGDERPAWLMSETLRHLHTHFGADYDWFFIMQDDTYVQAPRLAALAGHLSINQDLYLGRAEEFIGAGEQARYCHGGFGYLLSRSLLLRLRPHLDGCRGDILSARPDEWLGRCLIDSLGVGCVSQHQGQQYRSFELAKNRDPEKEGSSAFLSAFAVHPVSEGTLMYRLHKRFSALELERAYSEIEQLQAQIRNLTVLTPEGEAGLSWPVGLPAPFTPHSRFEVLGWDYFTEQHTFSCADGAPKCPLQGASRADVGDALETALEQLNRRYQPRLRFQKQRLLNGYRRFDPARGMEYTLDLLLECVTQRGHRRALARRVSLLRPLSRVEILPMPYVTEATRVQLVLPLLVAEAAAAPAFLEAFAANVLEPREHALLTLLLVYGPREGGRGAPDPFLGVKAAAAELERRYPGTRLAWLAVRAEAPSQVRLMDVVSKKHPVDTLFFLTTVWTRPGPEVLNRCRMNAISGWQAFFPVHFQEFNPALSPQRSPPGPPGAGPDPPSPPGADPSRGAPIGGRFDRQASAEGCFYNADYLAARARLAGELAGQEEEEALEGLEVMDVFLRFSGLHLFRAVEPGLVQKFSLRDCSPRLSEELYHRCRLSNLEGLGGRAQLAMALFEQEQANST
UniProt P09497: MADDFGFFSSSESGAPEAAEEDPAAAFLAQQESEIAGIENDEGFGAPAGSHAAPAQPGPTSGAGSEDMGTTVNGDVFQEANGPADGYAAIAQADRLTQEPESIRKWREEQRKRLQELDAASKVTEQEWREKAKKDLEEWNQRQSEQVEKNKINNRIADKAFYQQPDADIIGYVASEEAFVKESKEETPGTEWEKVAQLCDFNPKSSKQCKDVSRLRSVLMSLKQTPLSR
UniProt Q15417: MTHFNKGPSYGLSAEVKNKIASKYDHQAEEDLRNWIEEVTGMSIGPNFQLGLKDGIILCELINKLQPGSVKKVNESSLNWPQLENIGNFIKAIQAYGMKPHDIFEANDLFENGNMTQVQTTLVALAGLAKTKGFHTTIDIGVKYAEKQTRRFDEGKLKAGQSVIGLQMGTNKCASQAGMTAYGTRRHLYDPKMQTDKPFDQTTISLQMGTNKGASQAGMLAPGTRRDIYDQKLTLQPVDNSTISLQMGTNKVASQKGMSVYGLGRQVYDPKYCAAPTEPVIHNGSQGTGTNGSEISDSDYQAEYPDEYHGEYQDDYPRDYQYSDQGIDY
UniProt Q9ULM6, whole entry, looked up: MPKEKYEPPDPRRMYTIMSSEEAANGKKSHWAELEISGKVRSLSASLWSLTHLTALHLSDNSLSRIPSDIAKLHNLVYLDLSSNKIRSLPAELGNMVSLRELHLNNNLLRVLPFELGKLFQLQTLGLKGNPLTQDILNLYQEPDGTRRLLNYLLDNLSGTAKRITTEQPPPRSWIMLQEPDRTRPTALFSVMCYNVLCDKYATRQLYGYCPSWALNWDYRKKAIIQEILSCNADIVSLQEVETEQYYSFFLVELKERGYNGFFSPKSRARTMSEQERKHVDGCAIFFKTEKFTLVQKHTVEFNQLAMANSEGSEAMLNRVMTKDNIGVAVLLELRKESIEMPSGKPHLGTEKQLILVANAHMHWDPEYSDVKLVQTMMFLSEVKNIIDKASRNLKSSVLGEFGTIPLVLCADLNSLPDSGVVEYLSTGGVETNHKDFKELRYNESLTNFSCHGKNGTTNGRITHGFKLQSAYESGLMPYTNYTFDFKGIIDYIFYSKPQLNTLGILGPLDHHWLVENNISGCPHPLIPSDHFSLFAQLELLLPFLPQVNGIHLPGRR
UniProt Q9NX76: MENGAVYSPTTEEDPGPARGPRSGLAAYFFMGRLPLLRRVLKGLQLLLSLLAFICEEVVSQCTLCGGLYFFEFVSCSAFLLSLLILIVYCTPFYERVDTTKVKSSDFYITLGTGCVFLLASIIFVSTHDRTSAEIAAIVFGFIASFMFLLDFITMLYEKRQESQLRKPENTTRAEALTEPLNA
UniProt Q9NZ45: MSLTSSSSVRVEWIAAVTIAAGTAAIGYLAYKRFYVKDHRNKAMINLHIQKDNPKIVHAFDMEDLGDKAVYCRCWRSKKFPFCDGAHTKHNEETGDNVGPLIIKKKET

What was measured:
Experiment in all cases: log2 fold change, soluble protein after heating vs DMSO (PISA); higher = thermal stabilisation; K562 cells, 10 uM, 30 min; active = over 0.2 and 3.5 SD of the protein, either way, in both replicates (recomputed)
[1] = compound: C1=CC=C(C=C1)[C@H](COC2=CC3=C(C=C2)NC(=O)N3)NC(=O)C4=CC=CN(C4=O)CC5=CC(=C(C=C5)F)F
Outline: (§1)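 Aliquots of K562 cells (2×10^6 cells/mL) treated with 10 μM compound for 30 min were heated for 3 min over 48°C-58°C. After pooling and extraction in PBS with 0.5% NP-40 at 4°C, soluble protein from a 21,000xg, 90 min spin was quantified by TMTpro 16plex LC-MS/MS with channel sums equalised. Thermal stability is expressed against control samples, from duplicates, as a log2 fold change.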

[2] = compound: CC1=C(SC2=C1C(=N[C@H](C3=NN=C(N32)C)CC(=O)N)C4=CC=C(C=C4)Cl)C
Outline: as §1

[3] = compound: CC1=C2C(=CC=C1)N=C(N(C2=O)C3=CC=CC=C3C)CN4C=NC5=C(N=CN=C54)N
Outline: as §1

[4] = compound: Cc1sc2c(c1C)C(c1ccc(Cl)cc1)=N[C@@H](CC(=O)OC(C)(C)C)c1nnc(C)n1-2
Outline: as §1

[5] = compound: c1ccc([C@@H]2C[C@H]2NC2CCNCC2)cc1
Outline: as §1

Measured: log2 fold change

COA6 isoform 2 (UniProt Q5JTJ3)
inactive: [1] 0.06 | [2] 0.08 | [3] 0.038 | [4] -0.06 | [5] -0.015

CNOT8 (UniProt Q9UFF9)
inactive: [1] -0.018 | [2] -0.097 | [3] 0.026 | [4] 0.044 | [5] -0.058

CNOT4 isoform 6 (UniProt O95628)
inactive: [1] -0.019 | [2] 0.012 | [3] 0.068 | [4] -0.01 | [5] 0.018

CNST (UniProt Q6PJW8)
inactive: [1] -0.026 | [2] 0.011 | [3] 0.094 | [4] 0.021 | [5] -0.02

2 neighbouring records out of the list so far, for reference:
CNOT4 isoform 6 (UniProt O95628)
inactive: [1] -0.019 | [2] 0.012 | [3] 0.068 | [4] -0.01 | [5] 0.018

CNST (UniProt Q6PJW8)
inactive: [1] -0.026 | [2] 0.011 | [3] 0.094 | [4] 0.021 | [5] -0.02

(next part)

COASY isoform 2 (UniProt Q13057)
inactive: [1] -0.03 | [2] 0.054 | [3] 0.053 | [4] -0.037 | [5] -0.021

CIAO2A (UniProt Q9H5X1)
inactive: [1] -0.091 | [2] 0.016 | [3] 0.063 | [4] -0.06 | [5] 0.016

CLUH (UniProt O75153)
inactive: [1] -0.05 | [2] 0.027 | [3] 0.086 | [4] -0.016 | [5] -0.052

CNN2 (UniProt Q99439)
inactive: [1] -0.061 | [2] 0.011 | [3] 0.039 | [4] 0.007 | [5] 0.01

CHST14 (UniProt Q8NCH0)
inactive: [1] 0.044 | [2] 0.022 | [3] -0.034 | [4] -0.115 | [5] 0.057

CNNM4 (UniProt Q6P4Q7)
inactive: [1] -0.047 | [2] 0.056 | [3] 0.015 | [4] -0.132 | [5] 0.001

CNOT3 (UniProt O75175)
inactive: [1] -0.017 | [2] 0.012 | [3] 0.031 | [4] -0.027 | [5] 0.011

CHPF2 (UniProt Q9P2E5)
inactive: [1] 0.034 | [2] -0.141 | [3] 0.102 | [4] -0.029 | [5] -0.04

CKMT1A (UniProt P12532)
inactive: [1] 0.015 | [2] 0.017 | [3] -0.024 | [4] -0.002 | [5] -0.01

CLTA isoform 2 (UniProt P09496)
inactive: [1] 0.025 | [2] -0.057 | [3] -0.025 | [4] 0.006 | [5] 0.053

COL1A1 (UniProt P02452)
inactive: [1] 0.143 | [2] 0.102 | [3] 0.486 | [4] 0.114 | [5] 0.132

COCH (UniProt O43405)
inactive: [1] 0.006 | [2] 0.061 | [3] -0.193 | [4] 0.144 | [5] 0.006

CLTB (UniProt P09497)
inactive: [1] 0.021 | [2] -0.01 | [3] -0.016 | [4] -0.01 | [5] -0.02

CLPTM1L (UniProt Q96KA5)
inactive: [1] -0.011 | [2] 0.013 | [3] 0.024 | [4] -0.145 | [5] 0.01

CNN3 (UniProt Q15417)
inactive: [1] -0.015 | [2] 0.18 | [3] 0.079 | [4] 0.035 | [5] 0.03

CNTNAP4 (UniProt Q9C0A0)
inactive: [1] 0.132 | [2] -0.263 | [3] -0.19 | [4] 0.256 | [5] 0.005

CNOT6 (UniProt Q9ULM6)
inactive: [1] -0.093 | [2] 0.098 | [3] 0.102 | [5] 0.03

CMTM6 (UniProt Q9NX76)
inactive: [1] -0.005 | [2] 0.139 | [3] 0.127 | [4] 0.036 | [5] 0.028

CLIC1 (UniProt O00299)
inactive: [1] -0.008 | [2] 0.028 | [3] 0.026 | [4] 0.014 | [5] -0.017

CISD1 (UniProt Q9NZ45)
inactive: [1] 0.061 | [2] 0.017 | [3] 0.004 | [4] 0.006 | [5] 0.026

CLCN6 isoform 5 (UniProt P51797)
inactive: [1] 0.102 | [2] -0.316 | [3] 0.027 | [5] -0.134
